No constants are given. Whether binding was seen depends on the method and setting. Some results given as binding are weak or reduced against the parent protein; the word gives no strength.
Biological target: recombinant human DLL3 extracellular domain (R&D Systems, Cat #9749-DL) (human) (UniProt Q9NYJ7)
Assay: phage ELISA after three rounds of panning on biotinylated recombinant human DLL3

Amino acid sequences for entries named in this document (tags omitted). A change or cut given only in a name is not applied to a line headed by its entry.
UniProt Q9NYJ7: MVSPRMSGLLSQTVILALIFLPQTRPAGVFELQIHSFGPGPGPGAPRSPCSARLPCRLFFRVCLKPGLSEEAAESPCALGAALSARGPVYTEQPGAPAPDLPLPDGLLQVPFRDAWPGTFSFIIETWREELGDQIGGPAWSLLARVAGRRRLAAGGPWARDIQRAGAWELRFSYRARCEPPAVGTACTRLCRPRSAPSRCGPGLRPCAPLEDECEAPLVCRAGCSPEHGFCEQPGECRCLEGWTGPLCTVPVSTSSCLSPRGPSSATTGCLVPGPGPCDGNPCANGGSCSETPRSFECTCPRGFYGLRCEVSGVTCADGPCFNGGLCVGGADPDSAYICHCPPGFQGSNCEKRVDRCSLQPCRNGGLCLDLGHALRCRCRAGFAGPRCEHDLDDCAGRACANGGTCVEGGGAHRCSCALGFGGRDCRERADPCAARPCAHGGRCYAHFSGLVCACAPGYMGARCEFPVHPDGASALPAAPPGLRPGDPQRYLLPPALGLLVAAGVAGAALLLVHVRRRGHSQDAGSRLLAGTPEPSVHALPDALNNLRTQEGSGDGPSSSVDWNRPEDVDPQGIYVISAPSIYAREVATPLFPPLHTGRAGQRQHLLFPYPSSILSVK

- binding: binds
B1: SEQ ID NO 617 (protein)
VH: EVQLVESGGLVQPGGSLRLSCAASGFNIESSYIGWVRRAPGKGEELVARIYPTNGYTRYADSVKGRFTISADTSKNTAYLQMNSLRAEDTAVYYCARYDEYDGYYYEAMDYSGQGTLVTVSS
